Source: US20160297873A1 (VIRGINIA COMMONWEALTH UNIVERSITY, published 2016)
Results are given in words; binding and its absence hold for the method and conditions named. Some entries that bind do so weakly or less than the wild type.

Columns and labels:
[1] = molecular target: T1, V2-KLH-peptide (KLH-coupled DENND1A.V2 peptide …) (human); experiment: ELISA scan of hybridoma supernatants
T1 sequence (peptide, coupled to KLH (site not stated)): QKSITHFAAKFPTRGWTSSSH

[2] = molecular target: T2, DENND1A.V2 free peptide (V2-peptide, …) (human); experiment: ELISA scan of hybridoma supernatants
T2 sequence (peptide): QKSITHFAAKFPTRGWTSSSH

[3] = molecular target: T3, V2-BSA-peptide (BSA-conjugated DENND1A.V2 peptide …) (human); experiment: ELISA scan of hybridoma supernatants
T3 sequence (peptide, conjugated to BSA (site not stated)): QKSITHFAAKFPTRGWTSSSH

[4] = molecular target: T1, V2-KLH-peptide (KLH-coupled DENND1A.V2 peptide …) (human); experiment: ELISA, hybridoma supernatant 1:10
[5] = molecular target: T2, DENND1A.V2 free peptide (V2-peptide, …) (human); experiment: ELISA, hybridoma supernatant 1:10
[6] = molecular target: T3, V2-BSA-peptide (BSA-conjugated DENND1A.V2 peptide …) (human); experiment: ELISA, hybridoma supernatant 1:10
[7] = molecular target: T1, V2-KLH-peptide (KLH-coupled DENND1A.V2 peptide …) (human); experiment: ELISA, antigens coated at 1 ug/ml, hybridoma supernatant
[8] = molecular target: T2, DENND1A.V2 free peptide (V2-peptide, …) (human); experiment: as above
[9] = molecular target: T3, V2-BSA-peptide (BSA-conjugated DENND1A.V2 peptide …) (human); experiment: as above

Measured: binding

B1: mouse monoclonal DENND1A.V2 specific IgG1 P1B2 (antibody, V domains shown)
VH: QQSGADLVRSGASVKLSCTASGFSNIKDFYMHWVKQRPEQGLEWIGWIDPENGDTDYAPKFQGRATMTADTSSNTAYLQLNSLTSEDTAVYYCNAHTFLHGNSEPMDYWGQGTSVTVS
VL: IVMTQSPKFMSTSVGDRVSITCKASQDVIAAVAWYQQKPGQSPELLIYSASYRYTGVPDRFTGSGSGTDFTFTISSVQAEDLAVYYCQQHYSTPWTFGGGTKLDIKR
binds: all assays above
